From patent publication US20250262210A1, “LZTR1 MUTANT TUMORS AND METHODS THEREOF” (The Trustees of Columbia University in the City of New York, priority 2022, published 2025)
Results are given in words; binding and its absence hold for the method and conditions named. For some of these results: Binding seen in cells or lysates may run through a third protein. Some entries that bind do so weakly or less than the wild type. Where a sequence is shown, tags or fusion partners need not be part of it.

By UniProt entry, the sequences of proteins in these tests, tags left out. Residues count along the entry.
UniProt O60318: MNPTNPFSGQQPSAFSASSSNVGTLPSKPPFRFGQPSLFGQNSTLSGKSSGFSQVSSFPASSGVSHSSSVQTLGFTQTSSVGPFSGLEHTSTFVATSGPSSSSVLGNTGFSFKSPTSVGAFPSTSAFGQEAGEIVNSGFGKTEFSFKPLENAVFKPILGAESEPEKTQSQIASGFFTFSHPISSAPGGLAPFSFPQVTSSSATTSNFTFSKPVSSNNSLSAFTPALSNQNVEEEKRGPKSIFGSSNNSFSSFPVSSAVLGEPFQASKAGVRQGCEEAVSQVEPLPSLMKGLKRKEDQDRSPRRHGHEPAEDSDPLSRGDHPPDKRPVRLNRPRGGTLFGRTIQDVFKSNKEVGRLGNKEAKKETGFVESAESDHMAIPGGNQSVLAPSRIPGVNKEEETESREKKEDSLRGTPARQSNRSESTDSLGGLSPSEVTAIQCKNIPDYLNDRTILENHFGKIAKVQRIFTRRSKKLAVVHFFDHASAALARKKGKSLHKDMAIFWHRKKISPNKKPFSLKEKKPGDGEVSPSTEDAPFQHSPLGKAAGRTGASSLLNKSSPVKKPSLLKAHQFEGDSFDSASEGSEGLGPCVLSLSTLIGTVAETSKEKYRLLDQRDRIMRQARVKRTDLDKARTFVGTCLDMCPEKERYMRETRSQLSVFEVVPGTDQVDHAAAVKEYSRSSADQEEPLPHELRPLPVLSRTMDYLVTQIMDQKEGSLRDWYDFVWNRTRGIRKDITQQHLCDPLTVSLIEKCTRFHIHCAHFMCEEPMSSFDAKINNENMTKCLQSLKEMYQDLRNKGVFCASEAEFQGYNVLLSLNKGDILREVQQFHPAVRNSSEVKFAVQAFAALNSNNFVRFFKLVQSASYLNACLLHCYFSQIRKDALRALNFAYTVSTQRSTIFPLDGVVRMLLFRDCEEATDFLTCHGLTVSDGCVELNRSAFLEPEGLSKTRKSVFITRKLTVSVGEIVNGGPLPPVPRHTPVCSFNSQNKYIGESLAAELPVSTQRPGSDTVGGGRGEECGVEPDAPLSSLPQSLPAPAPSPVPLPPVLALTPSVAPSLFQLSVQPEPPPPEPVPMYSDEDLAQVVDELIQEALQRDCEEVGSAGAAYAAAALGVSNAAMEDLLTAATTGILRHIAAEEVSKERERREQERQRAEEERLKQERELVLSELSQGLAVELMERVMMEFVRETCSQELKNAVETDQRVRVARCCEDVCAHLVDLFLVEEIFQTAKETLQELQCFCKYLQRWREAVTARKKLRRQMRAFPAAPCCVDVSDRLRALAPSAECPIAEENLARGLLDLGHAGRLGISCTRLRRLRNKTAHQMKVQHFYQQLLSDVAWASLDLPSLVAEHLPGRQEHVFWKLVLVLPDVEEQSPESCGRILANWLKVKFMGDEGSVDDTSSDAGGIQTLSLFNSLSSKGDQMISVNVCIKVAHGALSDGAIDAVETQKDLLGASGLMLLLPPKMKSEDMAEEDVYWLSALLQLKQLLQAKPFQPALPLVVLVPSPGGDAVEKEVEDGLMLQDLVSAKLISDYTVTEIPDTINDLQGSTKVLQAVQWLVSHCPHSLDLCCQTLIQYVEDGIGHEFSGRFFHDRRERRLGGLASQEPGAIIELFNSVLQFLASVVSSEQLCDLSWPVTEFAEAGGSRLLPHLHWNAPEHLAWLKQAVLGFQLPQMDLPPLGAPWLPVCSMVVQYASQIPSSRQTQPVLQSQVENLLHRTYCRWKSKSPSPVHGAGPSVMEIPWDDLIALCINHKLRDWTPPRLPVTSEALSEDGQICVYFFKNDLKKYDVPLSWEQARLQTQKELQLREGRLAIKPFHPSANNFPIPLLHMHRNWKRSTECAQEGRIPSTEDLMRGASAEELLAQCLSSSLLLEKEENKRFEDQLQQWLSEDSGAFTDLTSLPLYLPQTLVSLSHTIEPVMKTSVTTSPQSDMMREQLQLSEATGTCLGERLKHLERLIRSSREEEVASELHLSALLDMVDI
UniProt P13611, residues 21-3396: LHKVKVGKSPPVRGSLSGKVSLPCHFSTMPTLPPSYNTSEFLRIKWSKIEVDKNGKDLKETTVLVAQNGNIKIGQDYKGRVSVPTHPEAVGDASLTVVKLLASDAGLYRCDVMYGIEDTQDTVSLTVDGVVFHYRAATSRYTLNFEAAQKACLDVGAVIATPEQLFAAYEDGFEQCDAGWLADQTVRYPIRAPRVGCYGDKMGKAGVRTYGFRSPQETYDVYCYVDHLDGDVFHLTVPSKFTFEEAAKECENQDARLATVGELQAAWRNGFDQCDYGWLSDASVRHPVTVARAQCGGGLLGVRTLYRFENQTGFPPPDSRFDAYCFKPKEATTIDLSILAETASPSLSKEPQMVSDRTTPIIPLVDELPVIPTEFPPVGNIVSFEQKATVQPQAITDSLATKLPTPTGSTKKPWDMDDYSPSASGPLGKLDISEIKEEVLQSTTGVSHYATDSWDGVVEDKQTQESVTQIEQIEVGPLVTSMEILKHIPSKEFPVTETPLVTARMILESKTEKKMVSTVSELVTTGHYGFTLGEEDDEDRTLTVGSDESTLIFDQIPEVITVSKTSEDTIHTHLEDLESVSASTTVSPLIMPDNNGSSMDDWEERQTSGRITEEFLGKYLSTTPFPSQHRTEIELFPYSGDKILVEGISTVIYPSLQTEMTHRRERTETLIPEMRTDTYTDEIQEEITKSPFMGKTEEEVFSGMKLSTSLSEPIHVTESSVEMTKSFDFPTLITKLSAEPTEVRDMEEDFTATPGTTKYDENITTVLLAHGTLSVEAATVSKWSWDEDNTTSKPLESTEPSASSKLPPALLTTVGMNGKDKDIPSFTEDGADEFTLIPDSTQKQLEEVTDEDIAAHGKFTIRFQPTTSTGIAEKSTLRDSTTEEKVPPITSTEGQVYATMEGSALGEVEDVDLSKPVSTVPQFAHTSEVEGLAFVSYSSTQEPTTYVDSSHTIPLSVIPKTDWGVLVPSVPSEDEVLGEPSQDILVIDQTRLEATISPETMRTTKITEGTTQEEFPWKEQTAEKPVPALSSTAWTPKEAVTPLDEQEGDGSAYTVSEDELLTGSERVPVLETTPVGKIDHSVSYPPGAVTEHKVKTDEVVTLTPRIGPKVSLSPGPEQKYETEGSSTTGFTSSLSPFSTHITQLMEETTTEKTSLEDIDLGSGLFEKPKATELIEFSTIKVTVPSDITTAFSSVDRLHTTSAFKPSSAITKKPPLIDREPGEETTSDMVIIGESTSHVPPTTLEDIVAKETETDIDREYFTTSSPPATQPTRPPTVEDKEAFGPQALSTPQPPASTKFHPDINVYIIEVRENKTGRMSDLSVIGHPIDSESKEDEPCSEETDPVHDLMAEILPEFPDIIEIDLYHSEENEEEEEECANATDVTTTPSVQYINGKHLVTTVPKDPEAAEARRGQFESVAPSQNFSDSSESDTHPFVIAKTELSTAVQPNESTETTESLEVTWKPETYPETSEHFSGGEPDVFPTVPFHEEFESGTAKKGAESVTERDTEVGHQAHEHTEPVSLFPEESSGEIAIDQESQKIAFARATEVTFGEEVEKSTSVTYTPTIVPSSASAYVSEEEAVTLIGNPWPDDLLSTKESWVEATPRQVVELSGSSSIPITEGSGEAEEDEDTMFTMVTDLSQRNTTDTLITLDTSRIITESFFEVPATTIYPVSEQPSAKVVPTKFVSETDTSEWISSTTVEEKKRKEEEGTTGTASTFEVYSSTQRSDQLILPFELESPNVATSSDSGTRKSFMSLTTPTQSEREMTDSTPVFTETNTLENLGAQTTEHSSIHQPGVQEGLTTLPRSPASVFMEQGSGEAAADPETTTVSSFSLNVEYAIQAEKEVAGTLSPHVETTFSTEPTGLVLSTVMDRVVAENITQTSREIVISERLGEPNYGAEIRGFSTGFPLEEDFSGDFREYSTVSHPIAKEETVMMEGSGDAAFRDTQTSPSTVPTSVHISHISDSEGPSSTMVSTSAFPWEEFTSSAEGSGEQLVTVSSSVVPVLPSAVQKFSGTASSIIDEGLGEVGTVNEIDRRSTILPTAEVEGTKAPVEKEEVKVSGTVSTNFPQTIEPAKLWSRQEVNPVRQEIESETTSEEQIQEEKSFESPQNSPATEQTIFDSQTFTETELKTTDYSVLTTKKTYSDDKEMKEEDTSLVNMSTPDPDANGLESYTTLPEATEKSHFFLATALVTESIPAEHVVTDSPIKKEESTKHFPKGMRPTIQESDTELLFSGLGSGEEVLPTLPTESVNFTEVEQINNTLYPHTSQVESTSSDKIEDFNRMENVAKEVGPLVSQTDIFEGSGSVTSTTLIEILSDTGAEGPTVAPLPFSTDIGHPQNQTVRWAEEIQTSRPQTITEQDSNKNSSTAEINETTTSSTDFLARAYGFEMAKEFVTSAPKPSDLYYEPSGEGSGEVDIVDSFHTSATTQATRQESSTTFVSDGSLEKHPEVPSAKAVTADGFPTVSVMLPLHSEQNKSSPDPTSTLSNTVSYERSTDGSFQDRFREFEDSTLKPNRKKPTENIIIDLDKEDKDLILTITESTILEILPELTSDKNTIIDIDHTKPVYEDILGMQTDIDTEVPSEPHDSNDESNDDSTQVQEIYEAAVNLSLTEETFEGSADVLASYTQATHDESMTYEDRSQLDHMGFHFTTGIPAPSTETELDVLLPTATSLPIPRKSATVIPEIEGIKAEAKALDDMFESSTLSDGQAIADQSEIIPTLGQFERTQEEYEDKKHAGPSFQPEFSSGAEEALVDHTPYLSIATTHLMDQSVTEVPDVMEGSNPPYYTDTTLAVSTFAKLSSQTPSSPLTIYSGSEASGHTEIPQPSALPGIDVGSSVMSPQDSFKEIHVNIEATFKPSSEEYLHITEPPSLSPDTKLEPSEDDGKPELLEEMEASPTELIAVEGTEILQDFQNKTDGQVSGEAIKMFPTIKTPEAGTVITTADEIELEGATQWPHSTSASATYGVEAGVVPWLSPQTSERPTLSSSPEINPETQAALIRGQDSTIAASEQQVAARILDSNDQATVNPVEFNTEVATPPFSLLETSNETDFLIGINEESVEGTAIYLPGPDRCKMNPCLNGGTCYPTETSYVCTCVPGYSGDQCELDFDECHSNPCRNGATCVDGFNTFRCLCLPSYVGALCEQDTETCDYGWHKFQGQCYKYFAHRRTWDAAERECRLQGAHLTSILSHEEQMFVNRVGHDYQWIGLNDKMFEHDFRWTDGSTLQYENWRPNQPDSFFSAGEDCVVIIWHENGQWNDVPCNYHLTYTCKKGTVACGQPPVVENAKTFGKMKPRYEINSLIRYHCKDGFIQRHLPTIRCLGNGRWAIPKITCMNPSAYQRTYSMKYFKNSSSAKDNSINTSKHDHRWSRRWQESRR
UniProt P30530, residues 26-894: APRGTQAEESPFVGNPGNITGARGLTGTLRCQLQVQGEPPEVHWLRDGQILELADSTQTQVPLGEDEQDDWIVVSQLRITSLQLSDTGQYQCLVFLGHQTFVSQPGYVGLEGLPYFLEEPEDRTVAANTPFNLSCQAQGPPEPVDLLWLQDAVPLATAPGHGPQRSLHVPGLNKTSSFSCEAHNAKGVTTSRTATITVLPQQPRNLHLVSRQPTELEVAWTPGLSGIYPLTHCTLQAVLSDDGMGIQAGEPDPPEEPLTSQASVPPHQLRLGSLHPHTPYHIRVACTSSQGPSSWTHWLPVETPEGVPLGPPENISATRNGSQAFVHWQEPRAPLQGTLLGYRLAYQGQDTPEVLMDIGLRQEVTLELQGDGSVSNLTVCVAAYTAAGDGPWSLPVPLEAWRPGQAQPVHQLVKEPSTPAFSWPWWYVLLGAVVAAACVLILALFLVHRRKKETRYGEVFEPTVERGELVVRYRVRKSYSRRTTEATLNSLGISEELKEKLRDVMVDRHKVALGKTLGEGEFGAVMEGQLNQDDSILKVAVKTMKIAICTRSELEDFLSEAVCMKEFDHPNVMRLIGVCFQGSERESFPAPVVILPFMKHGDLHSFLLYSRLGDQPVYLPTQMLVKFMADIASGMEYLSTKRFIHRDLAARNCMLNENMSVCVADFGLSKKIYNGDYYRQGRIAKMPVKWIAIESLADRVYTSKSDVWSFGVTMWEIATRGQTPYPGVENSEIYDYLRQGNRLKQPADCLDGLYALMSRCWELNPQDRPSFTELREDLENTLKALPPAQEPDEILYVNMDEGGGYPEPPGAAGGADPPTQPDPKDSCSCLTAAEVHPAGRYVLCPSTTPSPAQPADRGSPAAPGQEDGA

What was measured:
[1] = target: T1, FASTKD2 (human) (UniProt Q9NYY8); assay: IP/MS, LZTR1 wild type-FLAG, U87
T1 sequence (looked up): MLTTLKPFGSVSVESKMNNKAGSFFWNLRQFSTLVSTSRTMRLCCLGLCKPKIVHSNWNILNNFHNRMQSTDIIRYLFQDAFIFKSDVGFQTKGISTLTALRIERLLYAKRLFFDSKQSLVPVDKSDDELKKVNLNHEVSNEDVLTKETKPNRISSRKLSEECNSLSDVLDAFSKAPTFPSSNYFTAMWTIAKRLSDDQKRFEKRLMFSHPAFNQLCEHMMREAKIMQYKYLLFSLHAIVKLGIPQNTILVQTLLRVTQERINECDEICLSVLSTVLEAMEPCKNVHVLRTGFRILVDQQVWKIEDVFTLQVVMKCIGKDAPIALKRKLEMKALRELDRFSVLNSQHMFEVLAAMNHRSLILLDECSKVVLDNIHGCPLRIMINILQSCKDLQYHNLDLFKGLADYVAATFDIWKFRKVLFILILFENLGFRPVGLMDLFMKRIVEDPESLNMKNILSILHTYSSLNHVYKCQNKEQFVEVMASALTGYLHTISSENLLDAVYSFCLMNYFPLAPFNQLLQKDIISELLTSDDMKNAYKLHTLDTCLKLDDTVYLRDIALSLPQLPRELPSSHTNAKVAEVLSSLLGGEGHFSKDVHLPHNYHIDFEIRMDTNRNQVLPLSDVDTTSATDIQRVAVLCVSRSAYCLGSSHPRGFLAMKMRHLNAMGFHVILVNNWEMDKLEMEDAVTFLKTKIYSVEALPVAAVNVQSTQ

[2] = target: FBN1 (human) (UniProt P35555); assay: IP/MS, LZTR1 wild type-FLAG, U87
[3] = target: MCM3AP (human) (UniProt O60318); assay: IP/MS, LZTR1 wild type-FLAG, U87
[4] = target: PML (human) (UniProt P29590); assay: IP/MS, LZTR1 wild type-FLAG, U87
[5] = target: T2, SHC1 (human) (UniProt P29353); assay: IP/MS, LZTR1 wild type-FLAG, U87
T2 sequence (looked up): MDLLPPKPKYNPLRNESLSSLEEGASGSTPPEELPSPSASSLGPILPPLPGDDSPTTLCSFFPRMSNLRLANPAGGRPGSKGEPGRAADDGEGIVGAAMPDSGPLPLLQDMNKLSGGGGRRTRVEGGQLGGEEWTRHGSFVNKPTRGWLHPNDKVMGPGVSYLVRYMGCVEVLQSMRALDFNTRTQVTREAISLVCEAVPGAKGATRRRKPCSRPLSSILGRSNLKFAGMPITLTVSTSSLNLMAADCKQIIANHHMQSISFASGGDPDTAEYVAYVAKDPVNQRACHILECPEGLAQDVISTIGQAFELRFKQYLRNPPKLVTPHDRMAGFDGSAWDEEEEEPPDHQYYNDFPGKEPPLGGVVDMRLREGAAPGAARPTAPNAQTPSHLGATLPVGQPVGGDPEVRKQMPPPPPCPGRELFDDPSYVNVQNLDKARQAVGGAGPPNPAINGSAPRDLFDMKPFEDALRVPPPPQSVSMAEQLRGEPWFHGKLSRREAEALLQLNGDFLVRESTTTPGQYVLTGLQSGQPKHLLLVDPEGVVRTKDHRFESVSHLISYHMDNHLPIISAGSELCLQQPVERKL

[6] = target: T3, TMC04 (human) (UniProt Q5TGY1); assay: IP/MS, LZTR1 wild type-FLAG, U87
T3 sequence (looked up): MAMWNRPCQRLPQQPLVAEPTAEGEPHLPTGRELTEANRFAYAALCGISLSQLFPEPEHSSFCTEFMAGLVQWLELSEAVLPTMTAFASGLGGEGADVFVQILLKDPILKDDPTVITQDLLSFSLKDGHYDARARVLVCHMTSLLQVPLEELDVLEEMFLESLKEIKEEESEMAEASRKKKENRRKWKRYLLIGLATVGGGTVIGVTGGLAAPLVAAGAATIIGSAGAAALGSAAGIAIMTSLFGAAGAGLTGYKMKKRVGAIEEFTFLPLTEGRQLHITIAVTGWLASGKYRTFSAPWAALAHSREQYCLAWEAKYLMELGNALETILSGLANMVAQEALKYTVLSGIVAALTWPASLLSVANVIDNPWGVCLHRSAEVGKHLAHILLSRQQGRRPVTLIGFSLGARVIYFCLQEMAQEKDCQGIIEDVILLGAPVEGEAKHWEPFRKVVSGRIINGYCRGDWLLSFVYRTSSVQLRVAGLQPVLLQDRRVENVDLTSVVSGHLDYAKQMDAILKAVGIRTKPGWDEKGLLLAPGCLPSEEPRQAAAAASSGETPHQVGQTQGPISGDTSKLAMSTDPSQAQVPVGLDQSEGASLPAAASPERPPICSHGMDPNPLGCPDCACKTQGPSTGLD

[7] = target: VCAN (human) (UniProt P13611); assay: IP/MS, LZTR1 wild type-FLAG, U87
[8] = target: EGFR-GFP (UniProt P00533); assay: co-immunoprecipitation, HEK 293T cells (legend of FIGS. 2P-Q)
[9] = target: AXL-HA (UniProt P30530); assay: co-immunoprecipitation, HEK 293T cells (legend of FIGS. 2R-S)
[10] = target: EGFR-GFP (UniProt P00533); assay: co-immunoprecipitation with GFP antibody after EGF, HEK 293T cells
[11] = target: AXL-HA (UniProt P30530); assay: co-immunoprecipitation with HA antibody after Gas6, HEK 293T cells
[12] = target: AXL-HA (UniProt P30530); assay: summing up of the co-immunoprecipitations (discussion of Example 1)
[13] = target: EGFR-GFP (UniProt P00533); assay: as above
[14] = target: AXL-HA (UniProt P30530); assay: summing up of the co-immunoprecipitations (introduction of Example 1)
[15] = target: EGFR-GFP (UniProt P00533); assay: as above
[16] = target: EGFR-GFP (UniProt P00533); assay: co-immunoprecipitation (GFP antibody; FLAG affinity matrix), HEK 293T lysates, western blot
[17] = target: AXL-HA (UniProt P30530); assay: co-immunoprecipitation (HA affinity matrix; FLAG affinity matrix), HEK 293T lysates, western blot
[18] = target: T4, ARAF (human), P10398; assay: IP/MS, LZTR1 wild type-FLAG, U87; conditions: remark: other sources report otherwise
T4 chain: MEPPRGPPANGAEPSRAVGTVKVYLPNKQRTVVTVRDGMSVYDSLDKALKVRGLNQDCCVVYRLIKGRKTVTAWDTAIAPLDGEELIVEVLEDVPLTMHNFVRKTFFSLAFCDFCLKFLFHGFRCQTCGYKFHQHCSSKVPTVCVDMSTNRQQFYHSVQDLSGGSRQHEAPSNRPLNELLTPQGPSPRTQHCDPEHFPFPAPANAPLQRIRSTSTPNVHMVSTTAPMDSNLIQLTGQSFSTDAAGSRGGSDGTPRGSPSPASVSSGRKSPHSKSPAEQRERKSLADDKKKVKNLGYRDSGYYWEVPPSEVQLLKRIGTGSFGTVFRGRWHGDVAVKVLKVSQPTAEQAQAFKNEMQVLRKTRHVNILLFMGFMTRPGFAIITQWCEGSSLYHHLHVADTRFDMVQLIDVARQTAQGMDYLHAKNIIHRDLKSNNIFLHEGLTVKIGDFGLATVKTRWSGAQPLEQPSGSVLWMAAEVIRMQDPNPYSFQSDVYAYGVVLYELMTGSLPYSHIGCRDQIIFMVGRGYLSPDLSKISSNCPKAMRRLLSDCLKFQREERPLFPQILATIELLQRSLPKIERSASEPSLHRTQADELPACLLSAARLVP

[19] = target: EGFR-GFP (UniProt P00533); assay: GST pull-down, GST-LZTR1 deletion polypeptides with EGFR-GFP from HEK 293T lysates

Measured: binding

B1: LZTR1-FLAG (protein, human, UniProt Q8N653 1-840, looked up, not shown: small tags and cut ends)
chain: MAGPGSTGGQIGAAALAGGARSKVAPSVDFDHSCSDSVEYLTLNFGPFETVHRWRRLPPCDEFVGARRSKHTVVAYKDAIYVFGGDNGKTMLNDLLRFDVKDCSWCRAFTTGTPPAPRYHHSAVVYGSSMFVFGGYTGDIYSNSNLKNKNDLFEYKFATGQWTEWKIEGRLPVARSAHGATVYSDKLWIFAGYDGNARLNDMWTIGLQDRELTCWEEVAQSGEIPPSCCNFPVAVCRDKMFVFSGQSGAKITNNLFQFEFKDKTWTRIPTEHLLRGSPPPPQRRYGHTMVAFDRHLYVFGGAADNTLPNELHCYDVDFQTWEVVQPSSDSEVGGAEVPERACASEEVPTLTYEERVGFKKSRDVFGLDFGTTSAKQPTQPASELPSGRLFHAAAVISDAMYIFGGTVDNNIRSGEMYRFQFSCYPKCTLHEDYGRLWESRQFCDVEFVLGEKEECVQGHVAIVTARSRWLRRKITQARERLAQKLEQEAAPVPREAPGVAAGGARPPLLHVAIREAEARPFEVLMQFLYTDKIKYPRKGHVEDVLLIMDVYKLALSFQLCRLEQLCRQYIEASVDLQNVLVVCESAARLQLSQLKEHCLNFVVKESHFNQVIMMKEFERLSSPLIVEIVRRKQQPPPRTPLDQPVDIGTSLIQDMKAYLEGAGAEFCDITLLLDGHPRPAHKAILAARSSYFEAMFRSFMPEDGQVNISIGEMVPSRQAFESMLRYIYYGEVNMPPEDSLYLFAAPYYYGFYNNRLQAYCKQNLEMNVTVQNVLQILEAADKTQALDMKRHCLHIIVHQFTKVSKLPTLRSLSQQLLLDIIDSLASHISDKQCAELGADI
not listed: [18] | [19]
binds: all other assays above

B2: LZTR1-FLAG, Q8N653 1-840 (protein, human, UniProt Q8N653 1-840, looked up, not shown: small tags and cut ends)
chain: MAGPGSTGGQIGAAALAGGARSKVAPSVDFDHSCSDSVEYLTLNFGPFETVHRWRRLPPCDEFVGARRSKHTVVAYKDAIYVFGGDNGKTMLNDLLRFDVKDCSWCRAFTTGTPPAPRYHHSAVVYGSSMFVFGGYTGDIYSNSNLKNKNDLFEYKFATGQWTEWKIEGRLPVARSAHGATVYSDKLWIFAGYDGNARLNDMWTIGLQDRELTCWEEVAQSGEIPPSCCNFPVAVCRDKMFVFSGQSGAKITNNLFQFEFKDKTWTRIPTEHLLRGSPPPPQRRYGHTMVAFDRHLYVFGGAADNTLPNELHCYDVDFQTWEVVQPSSDSEVGGAEVPERACASEEVPTLTYEERVGFKKSRDVFGLDFGTTSAKQPTQPASELPSGRLFHAAAVISDAMYIFGGTVDNNIRSGEMYRFQFSCYPKCTLHEDYGRLWESRQFCDVEFVLGEKEECVQGHVAIVTARSRWLRRKITQARERLAQKLEQEAAPVPREAPGVAAGGARPPLLHVAIREAEARPFEVLMQFLYTDKIKYPRKGHVEDVLLIMDVYKLALSFQLCRLEQLCRQYIEASVDLQNVLVVCESAARLQLSQLKEHCLNFVVKESHFNQVIMMKEFERLSSPLIVEIVRRKQQPPPRTPLDQPVDIGTSLIQDMKAYLEGAGAEFCDITLLLDGHPRPAHKAILAARSSYFEAMFRSFMPEDGQVNISIGEMVPSRQAFESMLRYIYYGEVNMPPEDSLYLFAAPYYYGFYNNRLQAYCKQNLEMNVTVQNVLQILEAADKTQALDMKRHCLHIIVHQFTKVSKLPTLRSLSQQLLLDIIDSLASHISDKQCAELGADI
binds: [18]

B3: GST-LZTR1 Kelch domain (protein, not shown: a dimerising Fc or GST; large carriers; small tags and cut ends)
chain: MAGPGSTGGQIGAAALAGGARSKVAPSVDFDHSCSDSVEYLTLNFGPFETVHRWRRLPPCDEFVGARRSKHTVVAYKDAIYVFGGDNGKTMLNDLLRFDVKDCSWCRAFTTGTPPAPRYHHSAVVYGSSMFVFGGYTGDIYSNSNLKNKNDLFEYKFATGQWTEWKIEGRLPVARSAHGATVYSDKLWIFAGYDGNARLNDMWTIGLQDRELTCWEEVAQSGEIPPSCCNFPVAVCRDKMFVFSGQSGAKITNNLFQFEFKDKTWTRIPTEHLLRGSPPPPQRRYGHTMVAFDRHLYVFGGAADNTLPNELHCYDVDFQTWEVVQPSSDSEVGGAEVPERACASEEVPTLTYEERVGFKKSRDVFGLDFGTTSAKQPTQPASELPSGRLFHAAAVISDAMYIFGGTVDNNIRSGEMYRFQFSCYP
binds: [19]
